Results published in publication PMC10511499.
No constants are given. Whether binding was seen depends on the method and setting. Sequences can lack the tags named with a protein.

Sequences of proteins named here, by UniProt entry; tags and fusion partners are left off. A change or cut given only in a name is not applied to a line headed by its entry.
UniProt P36022: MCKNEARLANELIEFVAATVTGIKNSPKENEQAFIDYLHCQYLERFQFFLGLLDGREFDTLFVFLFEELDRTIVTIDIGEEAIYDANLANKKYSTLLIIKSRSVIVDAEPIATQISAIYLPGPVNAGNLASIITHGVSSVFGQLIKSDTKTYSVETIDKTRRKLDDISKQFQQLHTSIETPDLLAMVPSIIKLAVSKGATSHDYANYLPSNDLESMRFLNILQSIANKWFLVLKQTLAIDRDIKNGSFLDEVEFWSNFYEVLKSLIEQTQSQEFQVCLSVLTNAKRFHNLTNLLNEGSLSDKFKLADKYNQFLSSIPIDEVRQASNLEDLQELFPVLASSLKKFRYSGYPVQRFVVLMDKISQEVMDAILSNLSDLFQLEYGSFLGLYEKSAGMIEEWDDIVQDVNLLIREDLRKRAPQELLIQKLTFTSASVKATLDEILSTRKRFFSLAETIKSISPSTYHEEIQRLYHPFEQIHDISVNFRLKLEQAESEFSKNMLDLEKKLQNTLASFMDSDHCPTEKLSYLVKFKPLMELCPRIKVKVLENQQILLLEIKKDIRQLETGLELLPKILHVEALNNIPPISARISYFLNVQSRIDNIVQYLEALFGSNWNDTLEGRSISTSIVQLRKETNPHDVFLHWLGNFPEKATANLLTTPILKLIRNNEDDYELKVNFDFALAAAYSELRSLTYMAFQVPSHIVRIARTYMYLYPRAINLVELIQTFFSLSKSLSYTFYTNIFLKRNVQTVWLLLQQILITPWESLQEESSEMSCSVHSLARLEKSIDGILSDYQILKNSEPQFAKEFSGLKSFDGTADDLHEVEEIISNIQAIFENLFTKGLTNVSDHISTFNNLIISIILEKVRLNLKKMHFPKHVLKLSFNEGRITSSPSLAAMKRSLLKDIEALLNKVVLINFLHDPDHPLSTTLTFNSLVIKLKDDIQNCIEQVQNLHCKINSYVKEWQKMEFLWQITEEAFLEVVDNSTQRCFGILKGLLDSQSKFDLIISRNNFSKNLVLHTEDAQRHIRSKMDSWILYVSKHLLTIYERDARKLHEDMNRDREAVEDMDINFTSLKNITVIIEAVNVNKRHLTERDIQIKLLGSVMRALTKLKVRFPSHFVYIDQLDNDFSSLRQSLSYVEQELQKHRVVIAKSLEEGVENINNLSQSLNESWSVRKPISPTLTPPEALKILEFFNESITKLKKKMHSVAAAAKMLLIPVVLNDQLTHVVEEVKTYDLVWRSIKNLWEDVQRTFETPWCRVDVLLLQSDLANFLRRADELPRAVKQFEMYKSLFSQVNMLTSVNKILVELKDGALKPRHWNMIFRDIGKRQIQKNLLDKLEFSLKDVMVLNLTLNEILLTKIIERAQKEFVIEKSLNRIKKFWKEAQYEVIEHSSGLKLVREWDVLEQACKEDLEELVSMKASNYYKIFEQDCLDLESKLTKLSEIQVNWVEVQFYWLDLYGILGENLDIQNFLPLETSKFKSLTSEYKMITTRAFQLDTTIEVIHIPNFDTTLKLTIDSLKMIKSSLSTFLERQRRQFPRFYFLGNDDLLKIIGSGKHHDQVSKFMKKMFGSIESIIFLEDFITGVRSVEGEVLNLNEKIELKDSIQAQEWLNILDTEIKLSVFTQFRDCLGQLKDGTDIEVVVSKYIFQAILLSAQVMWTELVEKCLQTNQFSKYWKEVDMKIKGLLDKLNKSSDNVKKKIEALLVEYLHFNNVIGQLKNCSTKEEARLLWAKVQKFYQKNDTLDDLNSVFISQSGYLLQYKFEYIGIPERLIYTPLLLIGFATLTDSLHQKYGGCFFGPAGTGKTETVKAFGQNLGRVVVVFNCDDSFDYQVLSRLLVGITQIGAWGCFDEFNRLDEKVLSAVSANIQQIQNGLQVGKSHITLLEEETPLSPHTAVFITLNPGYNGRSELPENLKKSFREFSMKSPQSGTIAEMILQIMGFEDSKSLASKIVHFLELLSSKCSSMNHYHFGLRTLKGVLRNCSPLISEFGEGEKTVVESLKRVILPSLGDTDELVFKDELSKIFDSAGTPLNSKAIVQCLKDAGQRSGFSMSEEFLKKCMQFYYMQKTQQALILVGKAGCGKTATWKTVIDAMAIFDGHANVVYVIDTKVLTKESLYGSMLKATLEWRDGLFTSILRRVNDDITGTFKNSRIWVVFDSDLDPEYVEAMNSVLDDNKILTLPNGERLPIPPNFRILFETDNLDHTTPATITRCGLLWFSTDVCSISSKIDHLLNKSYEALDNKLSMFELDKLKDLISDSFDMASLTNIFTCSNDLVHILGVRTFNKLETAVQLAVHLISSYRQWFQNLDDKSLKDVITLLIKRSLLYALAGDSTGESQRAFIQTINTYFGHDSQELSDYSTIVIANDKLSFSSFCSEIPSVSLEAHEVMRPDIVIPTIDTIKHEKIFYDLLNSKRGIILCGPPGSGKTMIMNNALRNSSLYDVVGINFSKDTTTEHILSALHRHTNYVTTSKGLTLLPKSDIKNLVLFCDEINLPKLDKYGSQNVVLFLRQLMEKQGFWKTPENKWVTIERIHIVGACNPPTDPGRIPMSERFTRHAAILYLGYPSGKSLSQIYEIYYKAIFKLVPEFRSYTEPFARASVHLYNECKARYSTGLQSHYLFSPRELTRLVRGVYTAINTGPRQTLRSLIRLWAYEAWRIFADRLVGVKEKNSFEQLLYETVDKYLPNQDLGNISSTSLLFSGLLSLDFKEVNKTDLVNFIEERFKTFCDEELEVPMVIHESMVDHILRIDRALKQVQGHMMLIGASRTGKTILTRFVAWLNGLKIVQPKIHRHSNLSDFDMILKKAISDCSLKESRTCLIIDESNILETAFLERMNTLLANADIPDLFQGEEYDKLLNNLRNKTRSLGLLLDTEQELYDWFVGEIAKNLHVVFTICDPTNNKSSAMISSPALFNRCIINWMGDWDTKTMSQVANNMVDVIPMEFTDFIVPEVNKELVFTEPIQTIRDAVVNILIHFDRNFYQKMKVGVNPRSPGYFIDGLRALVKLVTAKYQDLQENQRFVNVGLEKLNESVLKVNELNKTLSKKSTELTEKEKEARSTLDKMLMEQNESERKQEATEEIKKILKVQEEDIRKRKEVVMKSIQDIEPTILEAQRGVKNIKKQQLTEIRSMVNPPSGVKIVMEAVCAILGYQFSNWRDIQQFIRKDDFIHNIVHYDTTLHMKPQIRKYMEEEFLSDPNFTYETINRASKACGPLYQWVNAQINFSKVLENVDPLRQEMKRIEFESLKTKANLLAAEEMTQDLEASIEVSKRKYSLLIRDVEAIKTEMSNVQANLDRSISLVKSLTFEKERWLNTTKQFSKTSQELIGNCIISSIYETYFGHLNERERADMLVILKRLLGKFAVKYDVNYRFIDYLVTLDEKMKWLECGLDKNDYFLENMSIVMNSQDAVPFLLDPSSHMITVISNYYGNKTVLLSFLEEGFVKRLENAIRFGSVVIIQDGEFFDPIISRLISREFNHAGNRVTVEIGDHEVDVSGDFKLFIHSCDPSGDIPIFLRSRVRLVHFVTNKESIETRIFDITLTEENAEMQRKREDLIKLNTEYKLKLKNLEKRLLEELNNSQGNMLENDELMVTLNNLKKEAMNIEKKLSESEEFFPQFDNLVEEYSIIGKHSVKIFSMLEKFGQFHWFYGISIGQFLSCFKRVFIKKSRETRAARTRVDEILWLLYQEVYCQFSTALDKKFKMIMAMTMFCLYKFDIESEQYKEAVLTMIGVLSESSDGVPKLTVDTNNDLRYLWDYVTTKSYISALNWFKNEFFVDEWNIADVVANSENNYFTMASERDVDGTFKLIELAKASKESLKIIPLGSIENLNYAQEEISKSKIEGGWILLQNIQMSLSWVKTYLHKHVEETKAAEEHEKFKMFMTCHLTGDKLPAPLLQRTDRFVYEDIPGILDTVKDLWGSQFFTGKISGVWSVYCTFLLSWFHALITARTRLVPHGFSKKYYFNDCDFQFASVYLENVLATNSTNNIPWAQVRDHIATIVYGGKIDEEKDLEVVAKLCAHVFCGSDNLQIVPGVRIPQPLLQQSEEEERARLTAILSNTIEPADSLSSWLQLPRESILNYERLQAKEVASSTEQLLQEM
UniProt P40960: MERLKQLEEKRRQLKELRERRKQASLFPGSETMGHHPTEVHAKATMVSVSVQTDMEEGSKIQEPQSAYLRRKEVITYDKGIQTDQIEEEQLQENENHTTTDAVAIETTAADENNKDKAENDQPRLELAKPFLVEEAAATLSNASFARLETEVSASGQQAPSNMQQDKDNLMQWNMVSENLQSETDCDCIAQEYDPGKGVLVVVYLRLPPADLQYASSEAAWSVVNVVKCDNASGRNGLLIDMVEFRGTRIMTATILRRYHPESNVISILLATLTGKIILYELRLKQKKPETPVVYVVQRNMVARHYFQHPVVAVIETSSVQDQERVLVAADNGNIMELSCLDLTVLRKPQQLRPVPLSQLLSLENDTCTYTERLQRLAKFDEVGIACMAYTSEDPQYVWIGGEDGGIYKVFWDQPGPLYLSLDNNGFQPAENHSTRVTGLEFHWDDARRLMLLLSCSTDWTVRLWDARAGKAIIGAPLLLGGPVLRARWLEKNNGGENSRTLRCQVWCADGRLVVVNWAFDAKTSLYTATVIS
UniProt Q04949: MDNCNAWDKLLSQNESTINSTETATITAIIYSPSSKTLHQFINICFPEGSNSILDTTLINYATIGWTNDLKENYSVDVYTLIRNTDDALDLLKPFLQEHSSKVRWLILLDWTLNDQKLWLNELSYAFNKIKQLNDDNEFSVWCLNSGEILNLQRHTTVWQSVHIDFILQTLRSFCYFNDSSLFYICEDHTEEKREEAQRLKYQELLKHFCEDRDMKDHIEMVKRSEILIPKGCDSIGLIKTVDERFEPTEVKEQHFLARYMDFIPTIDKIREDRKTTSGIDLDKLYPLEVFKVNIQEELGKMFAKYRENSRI
UniProt Q02647: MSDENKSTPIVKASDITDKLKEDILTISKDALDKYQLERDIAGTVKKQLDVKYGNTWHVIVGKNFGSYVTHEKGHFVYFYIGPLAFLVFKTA

Experiments:
[1] = biological target: yeast dynein^∆ICN complex (Pac11 lacking its N-terminal 43 residues) (S. cerevisiae) (UniProt P36022+P40960+Q04949+Q02647); assay: TIRF microscopy microtubule recruitment assay; yeast proteins; dynein on taxol-stabilised microtubules held by anti-tubulin antibody; fluorescent partner flowed in, TEV buffer with 1 mM DTT, 5-10 min; intensity along microtubules; both purified
[2] = biological target: T1, yeast Ndl1^CC E64A R78A (S. cerevisiae) (UniProt Q06568); assay: mass photometry; yeast proteins; mixed 1:1 at 50-100 nM each, 1-2 min, measured at 10-20 nM; 50 mM Tris pH 8.0, 150 mM K-acetate; both purified
T1 sequence: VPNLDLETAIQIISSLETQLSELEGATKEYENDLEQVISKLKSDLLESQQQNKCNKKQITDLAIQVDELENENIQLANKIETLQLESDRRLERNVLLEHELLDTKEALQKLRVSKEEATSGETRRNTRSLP

B1: yeast Nip100 coiled-coil 1 (Nip100^CC1, residues 97-377) with N-terminal eGFP (domain or fragment, UniProt P33420 97-377)
chain: EHSLLNGNAAQETIKNLQVKCESLASKLNKIKIENHELKTSVEKLSTNETVLLSKISRLDKLVKELKVENGNMKTHLDNFNHLLDASDSVMAPDLDKGTLLERSHLLQGLLDQTKLSYDKAMKVQEDLLEENTQLLEENAVLSKKISDLGLQLQQTNNTIGDLALQIEAQSKSSNIVDKLTNDNILLTSNIKALNNELEELQAKEKLDENLRITYEQLEQELRLQLSNLQSALENEKEIAGTYIEENSRLKATLESIEAKTSHKFQSLELKVNTLQEELYQ
[1]
  binding: no binding

B2: full-length yeast Ndl1 with C-terminal FLAG-SNAPf (protein, UniProt Q06568 1-189)
chain: MVPNLDLETAIQIISSLETQLSELEGATKEYENDLEQVISKLKSDLLESQQQNKCNKKQITDLEIQVDELENENIQLRNKIETLQLESDRRLERNVLLEHELLDTKEALQKLRVSKEEATSGETRRNTRSLPSQNKKMKLFKDTIKVSTTSSTLYLQNMAKTNNAARSHCNIPNTQITQSTVIATTSSV
modifications: JFX554-SNAP or JFX650-SNAP ligand on the SNAPf tag
[1]
  binding: no binding

B3: full-length yeast Pac1 with C-terminal FLAG-SNAPf (protein, UniProt P39946 1-494)
chain: MTNWQQQLPLTDTQKNELDKSVLRYLNWNYKQTVRHEHAQDYESVRHAIVTLSGFLLQESVDRQEFISNNDTSNESMVDIDELLLPKKWNSIVRLQKKIIELEQNTETLVSQIKDLNTQVSELAQFKPTTSNGTSAHNVLKWIPRNLPSCLINVESSVTSVKLHPNLPIVFVATDHGKLYAFDLFNYTIPLASLQSHTKAITSMDVLFTNYTNSSKKNYLVIVTASKDLQIHVFKWVSEECKFQQIRSLLGHEHIVSAVKIWQKNNDVHIASCSRDQTVKIWDFHNGWSLKTFQPHSQWVRSIDVLGDYIISGSHDTTLRLTHWPSGNGLSVGTGHEFPIEKVKFIHFIEDSPEIRFRTPSTDRYKNWGMQYCVSASRDRTIKIWEIPLPTLMAHRAPIPNPTDSNFRCVLTLKGHLSWVRDISIRGQYLFSCADDKSVRCWDLNTGQCLHVWEKLHTGFVNCLDLDVDFDSNVTPRQMMVTGGLDCKSNVFMR
[2]
  binding: no binding
